No constants are given. Whether binding was seen depends on the method and setting. In cells and extracts the contact can be indirect. Some binding calls cover weakened binding; strength is not graded here.

Sequences of proteins named here, by UniProt entry; tags and fusion partners are left off. Residues count along the entry.
UniProt Q3UVX5, residues 19-1203: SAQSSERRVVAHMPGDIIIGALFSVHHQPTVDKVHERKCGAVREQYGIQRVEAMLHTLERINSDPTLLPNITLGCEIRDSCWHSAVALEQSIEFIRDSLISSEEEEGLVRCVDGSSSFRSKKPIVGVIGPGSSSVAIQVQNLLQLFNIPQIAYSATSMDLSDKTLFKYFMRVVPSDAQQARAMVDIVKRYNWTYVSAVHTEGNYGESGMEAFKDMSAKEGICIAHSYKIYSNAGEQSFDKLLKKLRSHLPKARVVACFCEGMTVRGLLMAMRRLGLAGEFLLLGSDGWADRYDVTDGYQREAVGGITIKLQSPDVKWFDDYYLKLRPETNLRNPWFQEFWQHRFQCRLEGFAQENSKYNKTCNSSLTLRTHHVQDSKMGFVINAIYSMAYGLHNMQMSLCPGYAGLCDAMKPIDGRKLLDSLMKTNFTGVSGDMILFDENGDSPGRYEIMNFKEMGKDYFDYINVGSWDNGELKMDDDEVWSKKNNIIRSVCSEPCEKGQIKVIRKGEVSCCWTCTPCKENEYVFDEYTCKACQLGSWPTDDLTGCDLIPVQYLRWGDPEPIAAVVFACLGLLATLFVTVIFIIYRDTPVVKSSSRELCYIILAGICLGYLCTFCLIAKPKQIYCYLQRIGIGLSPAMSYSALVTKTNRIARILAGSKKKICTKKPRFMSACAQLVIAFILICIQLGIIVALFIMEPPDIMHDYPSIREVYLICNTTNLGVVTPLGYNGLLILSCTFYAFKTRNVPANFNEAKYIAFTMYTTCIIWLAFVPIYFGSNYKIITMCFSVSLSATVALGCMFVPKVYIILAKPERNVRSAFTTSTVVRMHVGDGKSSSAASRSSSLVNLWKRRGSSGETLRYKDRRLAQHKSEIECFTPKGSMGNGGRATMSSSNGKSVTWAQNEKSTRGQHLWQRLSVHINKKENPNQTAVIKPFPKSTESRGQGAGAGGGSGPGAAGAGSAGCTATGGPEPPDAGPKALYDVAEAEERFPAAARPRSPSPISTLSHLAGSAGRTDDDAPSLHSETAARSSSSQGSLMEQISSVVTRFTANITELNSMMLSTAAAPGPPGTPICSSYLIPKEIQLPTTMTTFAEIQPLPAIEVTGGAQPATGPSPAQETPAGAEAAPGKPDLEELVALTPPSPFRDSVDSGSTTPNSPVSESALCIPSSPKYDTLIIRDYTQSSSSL

Assay [1] concerns the target T1, β3 integrin (mouse (endogenous in mouse cortex)) (UniProt O54890).
T1 sequence: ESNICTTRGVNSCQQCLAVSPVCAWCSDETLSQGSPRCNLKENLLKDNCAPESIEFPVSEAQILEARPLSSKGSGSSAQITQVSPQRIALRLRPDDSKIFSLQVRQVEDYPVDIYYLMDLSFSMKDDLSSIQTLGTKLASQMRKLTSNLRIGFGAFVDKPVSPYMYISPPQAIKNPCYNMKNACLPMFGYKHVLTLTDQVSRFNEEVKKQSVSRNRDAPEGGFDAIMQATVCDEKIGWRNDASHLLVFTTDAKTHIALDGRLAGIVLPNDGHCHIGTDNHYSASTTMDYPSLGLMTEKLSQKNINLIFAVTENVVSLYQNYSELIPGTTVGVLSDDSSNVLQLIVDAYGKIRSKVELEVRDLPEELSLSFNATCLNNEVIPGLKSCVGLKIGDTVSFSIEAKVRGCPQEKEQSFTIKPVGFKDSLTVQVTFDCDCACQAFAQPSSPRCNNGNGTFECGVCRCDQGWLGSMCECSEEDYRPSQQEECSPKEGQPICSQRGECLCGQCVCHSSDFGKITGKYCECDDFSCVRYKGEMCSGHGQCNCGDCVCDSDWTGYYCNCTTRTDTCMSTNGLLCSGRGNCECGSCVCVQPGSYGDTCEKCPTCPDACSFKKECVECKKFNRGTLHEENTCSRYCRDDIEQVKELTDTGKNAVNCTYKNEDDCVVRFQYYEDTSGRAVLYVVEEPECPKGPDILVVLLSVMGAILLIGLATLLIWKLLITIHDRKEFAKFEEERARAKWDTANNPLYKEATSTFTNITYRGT
The experiment in a line: co-IP; membrane fraction of adult mouse cortex solubilised in buffer B (100 mM NaCl, 20 mM HEPES, 0.2 mM CaCl2, 1 mM MgCl2, 1% Triton X-100); lysate incubated overnight with Protein G beads coupled with hamster anti-CD61 or rabbit anti-mGluR5; controls non-immune hamster IgG or rabbit anti-RFP; western blot. On the technique in general: A western blot detects proteins with antibodies after separation by electrophoresis.

Assay [2] addresses metabotropic glutamate receptor mGluR5 (mouse (endogenous in mouse cortex)) (UniProt Q3UVX5). Described as above.

As to “metabotropic glutamate receptor mGluR5 (from UniProt Q3UVX5 19-1203)”, in assay [1], the binding result was “binds”.

B1: β3 integrin (receptor, UniProt O54890 26-787)
chain: ESNICTTRGVNSCQQCLAVSPVCAWCSDETLSQGSPRCNLKENLLKDNCAPESIEFPVSEAQILEARPLSSKGSGSSAQITQVSPQRIALRLRPDDSKIFSLQVRQVEDYPVDIYYLMDLSFSMKDDLSSIQTLGTKLASQMRKLTSNLRIGFGAFVDKPVSPYMYISPPQAIKNPCYNMKNACLPMFGYKHVLTLTDQVSRFNEEVKKQSVSRNRDAPEGGFDAIMQATVCDEKIGWRNDASHLLVFTTDAKTHIALDGRLAGIVLPNDGHCHIGTDNHYSASTTMDYPSLGLMTEKLSQKNINLIFAVTENVVSLYQNYSELIPGTTVGVLSDDSSNVLQLIVDAYGKIRSKVELEVRDLPEELSLSFNATCLNNEVIPGLKSCVGLKIGDTVSFSIEAKVRGCPQEKEQSFTIKPVGFKDSLTVQVTFDCDCACQAFAQPSSPRCNNGNGTFECGVCRCDQGWLGSMCECSEEDYRPSQQEECSPKEGQPICSQRGECLCGQCVCHSSDFGKITGKYCECDDFSCVRYKGEMCSGHGQCNCGDCVCDSDWTGYYCNCTTRTDTCMSTNGLLCSGRGNCECGSCVCVQPGSYGDTCEKCPTCPDACSFKKECVECKKFNRGTLHEENTCSRYCRDDIEQVKELTDTGKNAVNCTYKNEDDCVVRFQYYEDTSGRAVLYVVEEPECPKGPDILVVLLSVMGAILLIGLATLLIWKLLITIHDRKEFAKFEEERARAKWDTANNPLYKEATSTFTNITYRGT
In the case of B1, in assay [2], the binding result was “binds”.
